PubChem BioAssay AID504764 – Drosophila RNAi Screening Center | 2011
Test: 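Genome-wide screen for regulators of Notch-driven gene expression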 (primary screen). Cell system: Drosophila Kc167 cells. Reagent: long dsRNA against Drosophila genes. Timing: about 5 days (4 days dsRNA, then 24 h after transfection). Conditions: transfection of constitutively active membrane-tethered Notch lacking the extracellular domain, read 24 h later. Read-out: 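Light from a Notch-responsive E(spl)m3 luciferase reporter under active Notch, with control-promoter and no-Notch reporter wells to normalise; raw counts from paired wells a and b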. Reading the numbers: induced reporter light, run 1, well a and induced reporter light, run 1, well b: higher = more light from the Notch target reporter with active Notch; control promoter light, run 1, well a and control promoter light, run 1, well b: higher = more light from the viral control promoter (cell number, transfection, viability); uninduced reporter light, run 1, well a: higher = more light from the Notch target reporter without active Notch. Call rule: 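Wells with low control signal or poorly matching duplicates excluded; duplicates averaged; per source plate, z beyond ±2 for induced/control log2 ratio or beyond ±1.8 for induced/uninduced marks a hit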. Calls: active = modifier hit (raised or lowered Notch signal); inactive = not a hit.
The deposit covers about 22,000 reagents; this is an unselected part of those with a known target gene and a result. Over the whole deposit, 403 (1.9%) are marked active. 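Unnormalised raw counts per well; ratio z-scores behind the hit calls and whether each hit raises or lowers signal are not deposited.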 A plus sign joins genes that one reagent is predicted to hit. The record does not give: the amount of reagent.

| Target gene | amplicon | induced reporter light, run 1, well a | induced reporter light, run 1, well b | control promoter light, run 1, well a | control promoter light, run 1, well b | uninduced reporter light, run 1, well a | outcome |
| --- | --- | --- | --- | --- | --- | --- | --- |
| Rrp45 | DRSC20198 | 24590 | 17070 | 16110 | 14980 | 1895 | inactive |
| jtb | DRSC06868 | 32165 | 32825 | 53900 | 55025 | 3432 | inactive |
| HisRS | DRSC19986 | 67140 | 57725 | 79980 | 78570 | 9042 | inactive |
| sov | DRSC17930 | 1.84e5 | 1.52e5 | 2.90e5 | 2.28e5 | 14632 | inactive |
| Toll-6 | DRSC11304 | 1.41e5 | 1.62e5 | 3.09e5 | 3.01e5 | 6970 | active |
| mad2 | DRSC10274 | 2.25e5 | 1.78e5 | 2.33e5 | 2.35e5 | 10000 | inactive |
| CG17717 | DRSC18130 | 1.67e5 | 1.43e5 | 2.68e5 | 1.93e5 | 11400 | inactive |
| Sbds | DRSC10992 | 1.21e5 | 1.33e5 | 85455 | 51690 | 11405 | inactive |
| ppk11 | DRSC02737 | 1.36e5 | 1.77e5 | 81625 | 1.16e5 | 20630 | inactive |
| Jon66Ci | DRSC10772 | 1.65e5 | 1.56e5 | 1.66e5 | 1.31e5 | 5830 | inactive |
| meng | DRSC02134 | 1.83e5 | 1.67e5 | 2.48e5 | 2.51e5 | 11925 | inactive |
| RhoGEF3 (retired record) | DRSC08266 | 54455 | 57945 | 87965 | 86625 | 4380 | inactive |
| RhoGEF3 (retired record) | DRSC08353 | 1.79e5 | 1.97e5 | 1.97e5 | 2.06e5 | 8735 | inactive |
| RpS27A | DRSC03421 | 84465 | 95685 | 46830 | 59700 | 11785 | inactive |
| CG1773 | DRSC06688 | 1.55e5 | 1.75e5 | 1.35e5 | 1.48e5 | 13270 | inactive |
| Rab18 | DRSC18702 | 1.80e5 | 1.82e5 | 2.48e5 | 2.16e5 | 12300 | inactive |
| CG14958 | DRSC08417 | 93700 | 1.16e5 | 1.51e5 | 1.72e5 | 8320 | inactive |
| DIP-kappa | DRSC01336 | 80705 | 77315 | 58640 | 49630 | 6110 | inactive |
| DIP-kappa | DRSC01337 | 1.04e5 | 1.03e5 | 1.65e5 | 1.53e5 | 9790 | inactive |
| gas | DRSC04521 | 1.49e5 | 1.52e5 | 1.49e5 | 1.35e5 | 10332 | inactive |
| MFS3 | DRSC00664 | 1.07e5 | 1.22e5 | 1.09e5 | 52445 | 8760 | inactive |
| CG8850 | DRSC07287 | 1.05e5 | 89270 | 1.55e5 | 1.16e5 | 9690 | inactive |
| Gabat | DRSC10846 | 1.31e5 | 75990 | 1.28e5 | 1.27e5 | 9260 | inactive |
| CG13511 | DRSC04153 | 2.42e5 | 2.00e5 | 2.03e5 | 1.85e5 | 15420 | inactive |
| Acp63F | DRSC08137 | 1.58e5 | 1.61e5 | 1.75e5 | 1.87e5 | 6715 | inactive |
| Jheh1 | DRSC06529 | 99710 | 98440 | 1.31e5 | 1.46e5 | 7995 | inactive |
| CG6753 | DRSC16108 | 84140 | 78585 | 94710 | 54775 | 5270 | inactive |
| mthl4 | DRSC06998 | 54365 | 36285 | 33015 | 47335 | 3215 | inactive |
| CG9609 | DRSC20199 | 1.30e5 | 1.23e5 | 1.11e5 | 94280 | 11310 | inactive |
| CG8136 | DRSC16385 | 1.12e5 | 1.13e5 | 1.09e5 | 80045 | 9730 | inactive |

Part of the list above, reformatted:
CG13511 [DRSC04153] → induced reporter light, run 1, well a = 2.42e5; induced reporter light, run 1, well b = 2.00e5; control promoter light, run 1, well a = 2.03e5; control promoter light, run 1, well b = 1.85e5; uninduced reporter light, run 1, well a = 15420; outcome = inactive
Acp63F [DRSC08137] → induced reporter light, run 1, well a = 1.58e5; induced reporter light, run 1, well b = 1.61e5; control promoter light, run 1, well a = 1.75e5; control promoter light, run 1, well b = 1.87e5; uninduced reporter light, run 1, well a = 6715; outcome = inactive

The list goes on:
| Target gene | amplicon | induced reporter light, run 1, well a | induced reporter light, run 1, well b | control promoter light, run 1, well a | control promoter light, run 1, well b | uninduced reporter light, run 1, well a | outcome |
| --- | --- | --- | --- | --- | --- | --- | --- |
| CG4576 | DRSC15604 | 2.18e5 | 1.93e5 | 2.55e5 | 2.77e5 | 15540 | active |
| CG9864 | DRSC07346 | 41170 | 27450 | 50265 | 45955 | 3955 | inactive |
| puc | DRSC17034 | 93395 | 1.26e5 | 98185 | 1.19e5 | 6845 | inactive |
| run | DRSC20584 | 1.66e5 | 1.57e5 | 1.43e5 | 91760 | 11120 | inactive |
| Tl | DRSC16885 | 1.90e5 | 2.03e5 | 2.58e5 | 2.56e5 | 14425 | inactive |
| Ptp4E | DRSC18701 | 2.30e5 | 2.84e5 | 4.76e5 | 4.66e5 | 16805 | active |
| Nedd8 | DRSC02092 | 19870 | 15265 | 19595 | 28335 | 1420 | inactive |
| ArfGAP3 | DRSC11794 | 1.18e5 | 1.10e5 | 1.02e5 | 1.09e5 | 8880 | inactive |
| CG18599 | DRSC15357 | 1.51e5 | 1.62e5 | 1.79e5 | 1.81e5 | 12475 | inactive |
| CG18599 | DRSC22585 | – | – | – | – | – | inactive |
| CG9586 | DRSC03270 | 1.27e5 | 1.33e5 | 68600 | 85665 | 15505 | inactive |
| iPLA2-VIA | DRSC10699 | 1.16e5 | 1.49e5 | 88785 | 48545 | 12010 | inactive |
| CG31274 + MESK4 | DRSC13202 | 1.17e5 | 1.27e5 | 1.66e5 | 1.64e5 | 10235 | inactive |
| Balat | DRSC06852 | 1.53e5 | 1.24e5 | 1.11e5 | 1.32e5 | 9228 | inactive |
| Cdk8 | DRSC11113 | 87485 | 86540 | 74590 | 68370 | 11400 | active |
| CG18622 | DRSC15360 | 2.95e5 | 3.23e5 | 3.06e5 | 2.83e5 | 23400 | inactive |
| CG10898 | DRSC14279 | 1.42e5 | 1.22e5 | 84705 | 58970 | 9720 | inactive |
| CG18747 | DRSC15384 | 80335 | 1.03e5 | 77565 | 61100 | 3578 | inactive |
| His3:CG33818 + His3:CG33857 + His3:CG33806 + 20 more | DRSC21267 | 2960 | 3465 | 5165 | 4678 | 832 | inactive |
| GstD10 | DRSC15346 | 1.03e5 | 80350 | 67655 | 46745 | 5582 | inactive |
